Experimental data as given in patent publication US20070031398A1, “One of several enzyme-containing compounds, dietetic food products and drugs produced from and the use therefor for medical purpose” (MUCOS PHARMA GmbH & Co., priority 2003, published 2007).
At least one structure is not confirmed: it was looked up by name or label, or the drawing left a doubt.

Assays:
[1] = system: interleukin 4 (IL-4), IFN-γ in the serum; experiment: oral administration of sodium selenite to subjects: serum cytokines; type: in vivo; settings: after oral administration to subjects
CD8+ T cells = experiment: oral administration of sodium selenite: immune status; type: in vivo; settings: after oral administration

Question: Which results are given for `O=[Se](O)O` [sodium selenite]?
Answer: cytokine IFN-γ in the serum [1]: significant increase; interleukin 4 (IL-4) in the serum [1]: significant reduction; CD8+ T cells (immune status) (CD8+ T cells): decrease significantly
